Experimental data reported in US20220315934A1, “HETEROLOGOUS RIBOSOME GENERATION, […] COMPOSITIONS THEREOF” (priority 2019, published 2022).
For at least one compound, name, drawing or mass did not settle the structure.

Tested on: E. coli strain S4246
Assay: Antibiotic sensitivity/resistance of erythromycin-resistant strain S4246
Assay type: cell-based
Procedure: The erythromycin-resistant strain S4246 was generated using conventional recombineering (76, 77). Briefly, chemically competent S2060 cells were transformed with pKD46 (77) and plated on 2×YT agar plates supplemented with 50 μg mL^−1 carbencillin at 30° C. A single colony was picked, grown at 30° C. in 2×YT liquid medium supplemented with 50 μg mL^−1 carbencillin and 10 mM arabinose, and made chemically competent when the culture reached the appropriate OD600. Chemically competent S2060/pKD46 cells were transformed with the phosphothiorated recombineering oligonucleotide AB5708 (5′-C*T*C*A*[…] CCGCG […]-3′, SEQ ID NO: 403; phosphothirate bonds indicated as *, introduced mutation is bolded) to introduce the rrlA-H A2058U mutation on replichore 2 (76). Following recovery for 3 hours at 30° C., transformed cells were plated on 2×YT agar plates supplemented with 1000 μg mL^−1 erythromycin and incubated at 37° C. to cure the resident pKD46 plasmid. Following overnight growth, single colonies were picked into 2×YT liquid medium supplemented with 50 μg mL^−1 streptomycin, 10 μg mL^−1 tetracycline and 1000 μg mL^−1 erythromycin and allowed to grow overnight at 37° C. […]

Structure (SMILES)	sensitivity of strain S4246 (kanamycin 30 μg mL^−1)	resistance of strain S4246 (tetracycline 10 μg mL^−1)
NC[C@H]1O[C@H](O[C@H]2[C@H](O)[C@@H](O[C@H]3O[C@H](CO)[C@@H](O)[C@H](N)[C@H]3O)[C@H](N)C[C@@H]2N)[C@H](O)[C@@H](O)[C@@H]1O [kanamycin]	sensitive	
CN(C)[C@@H]1C(O)=C(C(N)=O)C(=O)[C@@]2(O)C(O)=C3C(=O)c4c(O)cccc4[C@@](C)(O)[C@H]3C[C@@H]12 [tetracycline]		resistant
